Test results as given in patent US8557996B2, “Heteroaryl-substituted alkyne compounds and method of use” (Amgen Inc., priority 2004, dated 2013).
Some of these results come from one statement about several compounds together.

Chains of the proteins cited; added tags and fusions are not shown. Residues count along the entry.
UniProt Q02763, 23-1124: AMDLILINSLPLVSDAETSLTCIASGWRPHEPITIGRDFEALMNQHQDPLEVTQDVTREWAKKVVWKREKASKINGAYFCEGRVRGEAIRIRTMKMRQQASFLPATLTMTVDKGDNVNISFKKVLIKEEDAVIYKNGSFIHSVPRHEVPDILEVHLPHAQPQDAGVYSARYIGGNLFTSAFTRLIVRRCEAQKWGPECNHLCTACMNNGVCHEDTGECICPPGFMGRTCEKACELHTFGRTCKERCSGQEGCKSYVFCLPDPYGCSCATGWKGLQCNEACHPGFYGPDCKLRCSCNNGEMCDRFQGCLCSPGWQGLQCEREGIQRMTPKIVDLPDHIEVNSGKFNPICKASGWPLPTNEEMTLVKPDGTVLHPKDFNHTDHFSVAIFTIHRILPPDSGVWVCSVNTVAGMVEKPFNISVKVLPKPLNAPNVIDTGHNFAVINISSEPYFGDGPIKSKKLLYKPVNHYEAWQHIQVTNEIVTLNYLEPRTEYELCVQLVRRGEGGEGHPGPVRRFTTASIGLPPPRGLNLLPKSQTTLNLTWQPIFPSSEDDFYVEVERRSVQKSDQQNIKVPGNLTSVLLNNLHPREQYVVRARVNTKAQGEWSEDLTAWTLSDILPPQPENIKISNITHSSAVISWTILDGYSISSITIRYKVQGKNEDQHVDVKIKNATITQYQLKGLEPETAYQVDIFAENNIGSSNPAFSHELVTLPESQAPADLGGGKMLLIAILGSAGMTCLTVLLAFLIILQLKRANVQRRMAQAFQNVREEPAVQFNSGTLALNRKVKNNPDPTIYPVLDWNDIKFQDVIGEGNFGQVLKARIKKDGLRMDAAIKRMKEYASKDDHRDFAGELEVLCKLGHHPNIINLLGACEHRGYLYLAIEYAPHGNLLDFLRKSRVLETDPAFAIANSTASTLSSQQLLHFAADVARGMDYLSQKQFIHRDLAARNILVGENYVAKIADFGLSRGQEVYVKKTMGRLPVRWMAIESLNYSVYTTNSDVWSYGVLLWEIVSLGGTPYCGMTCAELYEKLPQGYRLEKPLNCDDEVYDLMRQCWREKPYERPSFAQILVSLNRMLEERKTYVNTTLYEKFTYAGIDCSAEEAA

target: Tie-2 kinase enzyme (Homo sapiens, UniProt Q02763); experiment: TIE-2 Homogenous Time Resolved Flourescent (HTRF) kinase assay; settings: read-out: IC50 for the inhibition of Tie-2 as measured by the HTRF assay

SMILES	IC50
Cc1ccc(C(=O)Nc2cc(OC[C@@H]3CCCN3C)cc(C(F)(F)F)c2)cc1C#Cc1cnc2ccccc2n1 [Example 88]	≤ 10 µM
CNC(=O)c1ccc(C#Cc2cc(C(=O)Nc3cc(OC[C@@H]4CCCN4C)cc(C(F)(F)F)c3)ccc2C)cn1 [Example 89]	≤ 10 µM
Cc1ccc(C(=O)Nc2cc(OC[C@@H]3CCCN3C)cc(C(F)(F)F)c2)cc1C#Cc1cnc2[nH]cnc2c1 [Example 90]	≤ 10 µM
Cc1ccc(C(=O)Nc2cc(CN3CCN(C)CC3)cc(C(F)(F)F)c2)cc1C#Cc1cnc2ccccc2c1 [Example 91]	≤ 10 µM
